This is an account of results in PMC10575931.

Sequences of proteins named here, by UniProt entry; tags and fusion partners are left off.
UniProt Q8TD16: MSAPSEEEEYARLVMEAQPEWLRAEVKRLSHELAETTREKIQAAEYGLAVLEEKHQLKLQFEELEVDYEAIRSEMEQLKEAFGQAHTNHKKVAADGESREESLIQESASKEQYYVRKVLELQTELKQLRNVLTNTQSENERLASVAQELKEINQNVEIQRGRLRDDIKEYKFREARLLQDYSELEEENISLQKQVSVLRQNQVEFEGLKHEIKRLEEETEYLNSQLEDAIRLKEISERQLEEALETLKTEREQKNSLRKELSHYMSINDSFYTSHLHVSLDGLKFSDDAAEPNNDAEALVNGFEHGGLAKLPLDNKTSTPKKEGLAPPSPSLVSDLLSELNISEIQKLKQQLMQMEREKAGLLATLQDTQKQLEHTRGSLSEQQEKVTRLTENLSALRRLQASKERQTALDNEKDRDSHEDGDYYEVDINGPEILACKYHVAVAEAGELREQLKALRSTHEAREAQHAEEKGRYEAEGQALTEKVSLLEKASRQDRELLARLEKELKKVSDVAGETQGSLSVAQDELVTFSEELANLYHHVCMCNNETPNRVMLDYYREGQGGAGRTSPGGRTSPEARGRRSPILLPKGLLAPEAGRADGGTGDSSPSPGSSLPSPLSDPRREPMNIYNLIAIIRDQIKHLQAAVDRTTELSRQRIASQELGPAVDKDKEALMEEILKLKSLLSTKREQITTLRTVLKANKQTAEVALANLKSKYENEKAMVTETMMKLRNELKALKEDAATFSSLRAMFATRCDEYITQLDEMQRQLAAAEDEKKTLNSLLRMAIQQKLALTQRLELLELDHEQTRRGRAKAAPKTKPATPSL
UniProt O00571: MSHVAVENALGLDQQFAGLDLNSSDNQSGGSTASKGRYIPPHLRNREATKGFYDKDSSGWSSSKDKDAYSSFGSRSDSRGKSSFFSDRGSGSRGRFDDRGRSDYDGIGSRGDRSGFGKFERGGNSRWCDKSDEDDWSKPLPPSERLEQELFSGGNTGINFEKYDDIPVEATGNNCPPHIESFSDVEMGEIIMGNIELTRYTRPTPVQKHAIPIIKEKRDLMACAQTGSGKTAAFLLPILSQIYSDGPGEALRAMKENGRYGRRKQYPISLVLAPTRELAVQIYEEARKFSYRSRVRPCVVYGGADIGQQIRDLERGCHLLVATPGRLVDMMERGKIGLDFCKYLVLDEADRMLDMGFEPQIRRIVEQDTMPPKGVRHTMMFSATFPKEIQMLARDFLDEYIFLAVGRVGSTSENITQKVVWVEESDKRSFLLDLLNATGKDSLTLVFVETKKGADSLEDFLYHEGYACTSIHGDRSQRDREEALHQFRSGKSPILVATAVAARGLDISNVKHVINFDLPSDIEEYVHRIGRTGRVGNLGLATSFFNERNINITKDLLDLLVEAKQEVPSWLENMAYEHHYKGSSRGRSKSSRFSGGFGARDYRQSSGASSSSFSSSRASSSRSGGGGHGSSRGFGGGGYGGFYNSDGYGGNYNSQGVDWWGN
UniProt O75821: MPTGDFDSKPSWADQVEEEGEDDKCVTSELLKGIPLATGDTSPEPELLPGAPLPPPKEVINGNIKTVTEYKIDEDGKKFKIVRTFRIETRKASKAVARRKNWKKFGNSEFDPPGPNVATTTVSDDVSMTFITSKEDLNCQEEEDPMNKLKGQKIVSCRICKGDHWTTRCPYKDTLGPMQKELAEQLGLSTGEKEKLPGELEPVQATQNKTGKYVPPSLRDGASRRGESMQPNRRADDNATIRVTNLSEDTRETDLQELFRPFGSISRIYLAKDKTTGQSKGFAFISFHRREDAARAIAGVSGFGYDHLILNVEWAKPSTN
UniProt P42224: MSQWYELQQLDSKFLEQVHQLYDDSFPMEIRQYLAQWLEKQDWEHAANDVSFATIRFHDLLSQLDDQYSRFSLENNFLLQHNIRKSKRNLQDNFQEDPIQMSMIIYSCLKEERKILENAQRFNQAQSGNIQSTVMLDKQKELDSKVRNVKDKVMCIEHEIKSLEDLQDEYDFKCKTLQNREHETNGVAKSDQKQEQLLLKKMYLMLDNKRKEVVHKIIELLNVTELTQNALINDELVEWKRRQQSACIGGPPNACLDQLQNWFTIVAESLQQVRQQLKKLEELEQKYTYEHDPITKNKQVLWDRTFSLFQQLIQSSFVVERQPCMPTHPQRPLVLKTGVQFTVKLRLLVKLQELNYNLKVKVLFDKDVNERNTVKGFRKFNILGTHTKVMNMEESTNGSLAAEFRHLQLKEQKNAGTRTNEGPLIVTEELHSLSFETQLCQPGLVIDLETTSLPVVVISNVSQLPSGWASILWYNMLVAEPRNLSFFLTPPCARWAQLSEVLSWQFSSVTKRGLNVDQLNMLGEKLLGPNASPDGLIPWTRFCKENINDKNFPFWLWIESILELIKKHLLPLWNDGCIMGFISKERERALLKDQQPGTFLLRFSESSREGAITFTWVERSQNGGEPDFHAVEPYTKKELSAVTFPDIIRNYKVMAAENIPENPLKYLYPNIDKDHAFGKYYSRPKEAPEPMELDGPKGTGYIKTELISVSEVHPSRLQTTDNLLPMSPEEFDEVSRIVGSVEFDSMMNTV

This test addresses FLAG-tagged BICD2, full length (UniProt Q8TD16). In words: affinity purification with mass spectrometry; HEK293T transfected with mock or FLAG-tagged BICD2; co-immunoprecipitation lysis buffer; anti-FLAG M2 beads at 4 °C overnight; eluted with 3×FLAG peptide; silver-stained gel segments analysed by mass spectrometry.

Results are given in words; binding and its absence hold for the method and conditions named. In cells and extracts the contact can be indirect. Here binding means that the protein was enriched with, or labelled near, the bait; the list need not be complete.

With “DDX3X, endogenous (from UniProt O00571 1-662)”, the binding result was “binds”.
In the case of “EIF3G, endogenous (from UniProt O75821 1-320)”, the binding entry is on record as “binds”.
With “STAT1, endogenous (from UniProt P42224 1-750)” the entry was “binds”.
